Test results from patent publication US10988523B2 (Sanofi, priority 2018, dated 2021).

Experiment: general procedure: Fmoc solid-phase peptide synthesis; Rink amide AM resin (Rink Amide AM LL, NovaBiochem); DIC/HOAt
Settings: whole synthesis, trifluoroacetate salt; for final HPLC purity: UV; for final HPLC purity / isolated yield: scale of the general procedure 0.1 to 0.2 mmol

Substance	final HPLC purity [%]	isolated yield [%]	crude mass [mg]	isolated mass [mg]	crude mass (scale 0.2 mmol) [mg]
Ac-L-E-G-R-E-K-V-R-A-K(Ac)-I-Aib-Aib-E-G-Nle-S-T-F-S-Mly-R-A-K(Ac)-PEG2-PEG2-PEG2-PEG2-K(gE-gE-gE-gE-Palm)-NH2	98	14	600	135	–
Ac-L-E-G-R-E-K-V-R-A-K(Ac)-I-Aib-Aib-E-G-Nle-S-T-W-S-Aib-R-K-K(Ac)-K(PEG2-PEG2-PEG2-gE-gE-gE-Palm)-NH2	93	20	600	144	–
Ac-L-E-G-R-E-K-V-R-A-K(Ac)-I-Aib-Aib-E-G-Nle-S-T-W-S-Aib-R-K-K(Ac)-K(PEG2-PEG2-PEG2-gE-gE-gE-Stea)-NH2	93	20	600	185	–
Ac-L-E-G-R-E-K-V-R-A-K(Ac)-I-Aib-Aib-E-G-Nle-S-T-W-S-Aib-R-K-K(Ac)-PEG12-K(gE-gE-gE-Stea)-NH2	91	10	–	96	645
Ac-L-E-G-R-E-K-V-R-A-K(Ac)-I-Aib-Aib-E-G-Q-S-T-F-S-Mly-R-A-K(Ac)-PEG2-PEG2-PEG2-PEG2-K(gE-gE-gE-gE-Palm)-NH2	98	16	600	140	–
Ac-L-E-G-R-E-K-V-R-A-Q-I-Aib-Aib-E-G-Nle-S-T-W-S-Aib-R-K-K(PEG2-PEG2-gE-gE-gE-Palm)-NH2	97	4	300	38	–
